According to PubChem BioAssay AID540276 (National Center for Advancing Translational Sciences (NCATS), 2011):
About 5,400 (1.8%) of roughly 300,000 compounds were called active. The inconclusive results got no clear call from the source; some entries with a clear call stand among them for comparison. The call rests on the fitted dose curve; tested in HEK293 cells. Where the call is inconclusive, the potency comes from a doubtful curve fit.
On the % scale 0 is the no-effect control and ±100 the full control effect; potency means the concentration at half of the fitted maximal effect.

Assay: qHTS for inhibitors of binding or entry into cells for Marburg Virus
Details: Marburg virus pseudotyped entry inhibition, cell reporter; activity change, negative = inhibition: at 37.8 µM (top of the series) unless noted
In the case of `NC(=O)CSc1nc2scc(-c3ccco3)c2c(=O)n1-c1ccccc1`, the Potency is reported as “inactive”. With `OC(CN1C2=NCCN2c2ccccc21)c1ccc(Br)cc1` (stereo unspecified) the Potency was inconclusive: 35.5 µM [inhibitor, single point]. In the case of `CC1=C(C(N)=O)C(c2ccccc2)n2nc(-c3ccncc3)nc2N1` (stereo unspecified), the Potency is reported as inconclusive: 0.92 µM [activator, full curve, poor fit]. For `Cc1onc(NC(=O)NC(=O)c2ccccc2F)c1Br`, the Potency was inconclusive: 11.2 µM [activator, partial curve, poor fit]. In the case of `CCOC(=O)c1ccc(NC(=S)Nc2cccc(N)n2)cc1`, the Potency is reported as “inactive”. In the case of `FC(F)(F)c1ccccc1NC(=S)NC1CCN(Cc2ccccc2)CC1`, the Potency is reported as inconclusive: 10 µM [inhibitor, partial curve, poor fit]. For `O=C(N/N=C/C(Cl)=C\c1ccccc1)c1ccco1`, the Potency was inconclusive: 7.94 µM [activator, partial curve]. In the case of `COc1cc(OC)cc(C(=O)NCC(C)NC(=O)c2cc(OC)cc(OC)c2)c1` (stereo unspecified), the Potency is reported as “inactive”. With `COc1ccc(-n2c(COc3cccc4ccccc34)nnc2SCC#N)cc1` the Potency was inconclusive: 14.1 µM [inhibitor, partial curve]. In the case of `COc1ccccc1-c1c(C)nn2c(N)c(-c3ccccc3)cnc12`, the Potency is reported as inconclusive: 35.5 µM [inhibitor, single point]. With `CSc1ncccc1C(=O)OCC(=O)N1CCOCC1` the Potency was inconclusive: 8.2 µM [activator, partial curve, poor fit]. For `CCOC(=O)c1c(C)c(-c2ccccc2)n(CC(=O)N2CCCC2)c1C`, the Potency was “inactive”. With `COc1cccc(CNC(=O)Cc2ccc(S(=O)(=O)N3CCOCC3)s2)c1` the Potency was inconclusive: 10 µM [activator, partial curve, poor fit]. For `Fc1ccc(NC(=S)N2CCCC2)cc1`, the Potency was “inactive”. With `CCN(CC)CCNC(=S)Nc1ccc2nc(N3CCN(CC)CC3)cc(C)c2c1` the Potency was inconclusive: 1.26 µM [inhibitor, full curve, poor fit]. In the case of `Cc1ccc(NC(=O)CSc2ncccc2C(=O)Oc2cccc([N+](=O)[O-])c2)cc1Cl`, the Potency is reported as inconclusive: 14.1 µM [inhibitor, single point]. In the case of `Cc1sc(NC(=O)c2ccc(OCC(C)C)cc2)c(C(N)=O)c1-c1ccc(Cl)cc1Cl`, the Potency is reported as inconclusive: 8.91 µM [inhibitor, partial curve, poor fit]. For `O=C(c1ccc(Br)o1)N1CCCc2ccccc21`, the Potency was “inactive”. In the case of `CCOc1ccc(-c2cc(C)n3nc(C(=O)Nc4cc(Cl)ccc4O)cc3n2)cc1`, the Potency is reported as inconclusive: 1.58 µM [inhibitor, partial curve, poor fit]. In the case of `CCOc1ccccc1NC(=O)CCn1cccc1`, the Potency is reported as inconclusive: 35.5 µM [activator, single point]. With `Cc1ccc2cccc(NC(=O)c3ccc(-c4ccc(Cl)cc4Cl)o3)c2n1` the Potency was “inactive”. In the case of `Cc1ccc(Cl)c(OC(=O)Cn2cnc3c2c(=O)n(C)c(=O)n3C)c1`, the Potency is reported as inconclusive: 22.4 µM [activator, partial curve, poor fit]. For `Cc1cc(/C=N/NC(=O)C(=O)NCc2ccccn2)c(C)n1-c1cccc(Br)c1`, the Potency was inconclusive: 35.5 µM [inhibitor, partial curve, poor fit]. For `CCCC(=Nc1ccccc1OC)C1=C(O)CC(c2ccccc2)CC1=O` (stereo unspecified), the Potency was inconclusive: 35.5 µM [activator, single point]. In the case of `COc1ccccc1NC(=O)c1cccnc1`, the Potency is reported as “inactive”. In the case of `O=C(O)CCc1ccc(-c2ccc(F)cc2)n1CC1CCCO1` (stereo unspecified), the Potency is reported as “inactive”. With `COc1ccc([N+](=O)[O-])cc1NCC(=O)Nc1cccc(S(=O)(=O)N2CCCC2)c1` the Potency was inconclusive: 35.5 µM [inhibitor, single point]. With `Cc1ccc(N(C(=O)C2COc3ccccc3O2)C(C(=O)NC2CCCCC2)c2cn(C)nc2C)cc1` (stereo unspecified) the Potency was “inactive”. For `COc1ccc(-c2nc3cc(NC(=O)COc4ccc(F)cc4)ccc3o2)cc1`, the activity change, negative = inhibition was inconclusive: 55.5% [activator] [at 46.1 µM]. With `O=C(OCc1cccc(Cl)c1)c1cc(S(=O)(=O)N2CCCCC2)ccc1N1CCOCC1` the Potency was active: 11.2 µM. For `O=C(CCNS(=O)(=O)c1cccc2nsnc12)Nc1ccc(F)cc1`, the Potency was inconclusive: 12.6 µM [activator, single point]. In the case of `Cn1c(=O)c2c(-c3ccccc3)n3c(c2n(C)c1=O)C(c1cc(Cl)ccc1O)Nc1ccccc1-3` (stereo unspecified), the Potency is reported as inconclusive: 35.5 µM [inhibitor, partial curve, poor fit]. With `COc1ccc(NC(=O)Cn2c(-c3ccc(OC)cc3)cn(-c3ccc(C)cc3)c2=O)cc1` the Potency was inconclusive: 35.5 µM [activator, single point]. With `Cc1cc(C)n2cc(CSc3ccc(Br)cc3)nc2n1` the Potency was “inactive”. With `O=C(CSc1ccsc1[N+](=O)[O-])NCc1ccccc1` the Potency was inconclusive: 8.91 µM [activator, partial curve, poor fit]. For `COc1ccc(-c2nc3ccccn3c2Cl)cc1`, the Potency was inconclusive: 6.31 µM [inhibitor, partial curve, poor fit]. With `COc1ccccc1-c1cc(-c2cc(Cl)ccc2O)n[nH]1` the Potency was “inactive”. In the case of `N/C(=N\OC(=O)c1ccco1)c1cccnc1`, the Potency is reported as “inactive”. In the case of `Cc1cc(Nc2ccc(C)c(Cl)c2)n2nc(-c3ccccc3)nc2n1`, the Potency is reported as “inactive”. For `Cc1ccc(C(=O)Nc2ccc(NC(=O)c3ccco3)c(C)c2)cc1`, the Potency was inconclusive: 10 µM [inhibitor, single point]. With `O=C1C=CC(=O)N1N(c1ccccc1)c1ccccc1` the Potency was inconclusive: 35.5 µM [inhibitor, single point]. In the case of `NS(=O)(=O)c1ccc(CCNC(=O)c2ccc([N+](=O)[O-])s2)cc1`, the Potency is reported as inconclusive: 35.5 µM [inhibitor, single point]. For `COc1ccc(OC)c(/C=N/NC(=O)c2cc3c(OC)cccc3[nH]2)c1`, the Potency was active: 10 µM. For `Cc1cc2oc(=O)cc(CN3CCN(S(=O)(=O)c4cccs4)CC3)c2cc1C(C)C`, the Potency was inconclusive: 1.41 µM [inhibitor, full curve, poor fit]. For `C=CCn1c(C)csc1=Nc1ccc(C(=O)O)cc1`, the Potency was “inactive”. In the case of `COc1ccc(S(=O)(=O)N(C)c2ccc(C(=O)N3CCC(C(N)=O)CC3)cc2)cc1OC`, the Potency is reported as “inactive”. In the case of `COc1nc(-c2ccccc2)cc(C(F)(F)F)n1`, the Potency is reported as inconclusive: 0.058 µM [inhibitor, partial curve, poor fit]. In the case of `COc1ccccc1CCNC(=O)c1ccc2nc[nH]c2c1`, the Potency is reported as inconclusive: 39.8 µM [activator, partial curve, poor fit]. With `O=C(NCC1CCCO1)c1ccccc1S(=O)(=O)c1ccc([N+](=O)[O-])cc1` (stereo unspecified) the Potency was “inactive”. In the case of `Cc1ccc(C(=O)NCCn2c(N)c(C#N)c3nc4ccccc4nc32)cc1`, the Potency is reported as inconclusive: 22.4 µM [activator, single point]. With `CCn1c(=N)c(C(=O)NCCCOC)cc2c(=O)n3cccc(C)c3nc21` the Potency was inconclusive: 14.1 µM [inhibitor, partial curve, poor fit]. With `COc1ccc(-c2ccnc3c2c(=O)n(C)c(=O)n3C)cc1OC` the Potency was “inactive”. In the case of `Cn1c(SCC(=O)NC(=O)Nc2ccccc2)nnc1-c1ccncc1`, the Potency is reported as “inactive”. With `Cc1cc(=O)oc(C)c1C(=O)NCCC(C)C` the Potency was inconclusive: 2.31 µM [activator, full curve, poor fit]. In the case of `O=C(Cn1nnc(-c2ccccc2)n1)N=Nc1c(O)[nH]c2ccccc12`, the Potency is reported as inconclusive: 23.1 µM [activator, single point]. In the case of `CC(C)(C)c1ccc(/C=C/C(=O)NCCCN2CCOCC2)cc1`, the Potency is reported as inconclusive: 35.5 µM [inhibitor, single point]. In the case of `CS(=O)(=O)c1nc(-c2ccccc2)cc(-c2ccccc2)c1C#N`, the Potency is reported as active: 12.6 µM. With `O=[N+]([O-])c1cccc(Nc2c([N+](=O)[O-])ccc3nonc23)c1` the Potency was “inactive”. With `CCN(C(=O)C(NS(=O)(=O)c1cccc2nsnc12)c1ccccc1)c1ccccc1` (stereo unspecified) the Potency was inconclusive: 5.62 µM [inhibitor, partial curve, poor fit]. In the case of `CCn1nc(C)c(/C=N/NC(=O)Cn2cncn2)c1C`, the Potency is reported as inconclusive: 15.8 µM [activator, partial curve, poor fit]. In the case of `COc1ccc(CNCc2c(F)cccc2F)cc1OC`, the Potency is reported as “inactive”. For `O=C(N1CCOCC1)N1CCN(c2nc(-c3ccccc3)cs2)CC1`, the Potency was “inactive”. In the case of `Cc1ccc(C)n1-c1ccc(-c2ccnc(N)n2)cc1`, the Potency is reported as inconclusive: 10 µM [inhibitor, partial curve, poor fit]. With `CCOC(=O)CNC(=O)c1c(C)nn(C)c1Cl` the Potency was inconclusive: 17.8 µM [inhibitor, partial curve, poor fit]. With `O=C(Nc1ccc(S(=O)(=O)N2CCCCCC2)cc1)c1c(F)cccc1F` the Potency was “inactive”. In the case of `O=C(NCc1ccc2[nH]c3c(c2c1)CCCC3)c1ccc(S(=O)(=O)N2CCCCC2)cc1`, the Potency is reported as “inactive”. In the case of `CCc1cccc(C)c1NC(=O)CN1C(=O)c2cccc3cccc1c23`, the Potency is reported as “inactive”. With `Cc1ccc(NC(=O)C2CCCN(C(=O)c3ccc(Cl)cc3)C2)cc1S(=O)(=O)N1CCOCC1` (stereo unspecified) the Potency was inconclusive: 1 µM [inhibitor, full curve, poor fit]. With `CCCCNC(=O)N(O)C1N(/N=C/c2ccccc2O)C(=S)SC1(C)C` (stereo unspecified) the Potency was inconclusive: 0.562 µM [inhibitor, full curve, poor fit]. With `COc1ccc(N2C(=O)CC(Sc3nnnn3-c3ccc(F)cc3)C2=O)cc1` (stereo unspecified) the Potency was inconclusive: 35.5 µM [inhibitor, single point]. For `O=C(COc1ccc(Br)cc1CNC1CCCC1)Nc1ccccc1`, the Potency was active: 1.78 µM.
